From PubChem BioAssay AID493014 (National Center for Advancing Translational Sciences (NCATS), 2011)
Among all 340,000 compounds or so, about 170 (0.05%) were called active. This list was built around the results that the source calls inconclusive (neither active nor inactive); the mix of calls is not that of the screen. Calls come from the whole dose curve; as a rule, active = well fitted inhibition curve with a large enough effect in the signal ratio, with a control signal flat (not every such curve was filed as active); inconclusive = small, poorly fitted or top-dose-only effect, or effect the other way, or a change in a side signal; inactive = flat fitted curve, though single readings scatter; the % refers to the signal ratio. Potencies of inconclusive entries are doubtful fits and often do not repeat.

Assay: qHTS Assay to Find Inhibitors of Chronic Active B-Cell Receptor Signaling;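 for activity change, negative = inhibition: plate controls were basal doxycycline-induced cells for no effect and cells given 10 µM MG132 for full effect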
Conditions: ABC-DLBCL IkBa-CBG/CBR reporter, luminescence ratio (green luciferase fused to IkBa over red control in TMD8 lymphoma cells), 4 h; activity change, negative = inhibition: at 46.1 µM (top of the series) unless noted
Method in brief: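 Cell line TMD8 (human ABC DLBCL), stably expressing tet-inducible CBG68-IkBa fusion and CBR; IMDM/0.5% FBS; cpd up to 46 uM; dox induction, 4 h, 37C/5% CO2; dual luminescence; green/red ratio; MG132 control.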
Potency is the fitted concentration of half-maximal effect.

| Compound | activity change, negative = inhibition | Potency |
| --- | --- | --- |
| O=S(=O)(c1ccc(NC(=S)Nc2ccc(OC(F)F)cc2)cc1)N1CCOCC1 | inconclusive: 8.09% |  |
| COc1ccc2nc(NC(=O)c3ccc(NC(=O)C4CCCO4)cc3)sc2c1 (stereo not drawn) | inconclusive: -0.207% |  |
| COc1ccc(NS(=O)(=O)c2ccc3c(c2)OCCO3)cc1OC | inactive |  |
| COCCn1cnc2c(c1=O)c1nc3ccccc3nc1n2/N=C/c1ccco1 | inconclusive: 7.98% |  |
| Cc1ccccc1NC(=O)Cn1nc(C)c2ccccc2c1=O | inconclusive: 9.02% |  |
| CCOc1cc2c(cc1OCC)C(C(=O)O)C(c1cc(OC)c(OC)c(OC)c1)N(C)C2=O (stereo not drawn) | inconclusive: -17.8% |  |
| CCc1ccc(O)c(N=Cc2ccccc2O)c1 | inconclusive: 7.91% |  |
| Cc1cc(NC(=O)C(C)Sc2nnc(NCc3ccco3)s2)no1 (stereo not drawn) | inactive |  |
| CCOC(=O)c1sc(-c2ccccc2)nc1C | inconclusive: 17.7% |  |
| O=C(/C=C/c1c(F)cccc1Cl)Nc1ccncc1 | inconclusive: -3.58% |  |
| Cc1ccc(/C=C/C(=O)N2CCN(c3ncccn3)CC2)o1 |  | inconclusive: 18.4 µM [falling, single point] |
| Cc1ccsc1C(=O)OCc1csc(-c2ccccc2)n1 |  | inconclusive: 4.11 µM [falling, partial curve, poor fit] |
| CCc1nnc(NC(=O)c2cc(C)oc2C)s1 | inactive |  |
| CCC(C)Sc1ccc(-c2nc3cc(C)ccn3c2NC2CCCCC2)cc1 (stereo not drawn) | inactive |  |
| CC(=O)Nc1ccc(S(=O)(=O)NCCC(=O)OCC(=O)NCc2ccccc2)cc1 | inconclusive: -0.548% |  |
| Nc1scn[n+]1Cc1cccc2cccnc12 | inconclusive: -16.3% |  |
| COc1ccc2[nH]c3c(c2c1)CCN1C(=O)C(CC(=O)NCCC2=CCCCC2)C[C@H](C(=O)N2CCOCC2)[C@@]31CCC1CCCC1 (stereo partly drawn) | inactive |  |
| COc1ccc(-c2nc(N)ncc2-c2csc(C)n2)c(O)c1 | inconclusive: -7.14% |  |
| CCOc1ccccc1NC(=O)COC(=O)c1cc[n+]([O-])cc1 | inactive |  |
| CC(=O)c1ccc(NC(=O)CN2C(=O)/C(=C/C(C)=C/c3ccccc3)SC2=S)cc1 | inconclusive: 12.5% |  |
| Cc1cccc(NC(=O)C2Cc3ccccc3O/C2=N\O)c1 (stereo not drawn) | inconclusive: 5.65% |  |

Fetched one by one from the entries so far (five):

| Compound | activity change, negative = inhibition | Potency |
| --- | --- | --- |
| COc1ccc2[nH]c3c(c2c1)CCN1C(=O)C(CC(=O)NCCC2=CCCCC2)C[C@H](C(=O)N2CCOCC2)[C@@]31CCC1CCCC1 (stereo partly drawn) | inactive |  |
| O=C(/C=C/c1c(F)cccc1Cl)Nc1ccncc1 | inconclusive: -3.58% |  |
| Cc1ccsc1C(=O)OCc1csc(-c2ccccc2)n1 |  | inconclusive: 4.11 µM [falling, partial curve, poor fit] |
| CCc1ccc(O)c(N=Cc2ccccc2O)c1 | inconclusive: 7.91% |  |
| COc1ccc2nc(NC(=O)c3ccc(NC(=O)C4CCCO4)cc3)sc2c1 (stereo not drawn) | inconclusive: -0.207% |  |

The results go on:

| Compound | activity change, negative = inhibition | Potency |
| --- | --- | --- |
| C=CCOc1c(Br)cc(CNc2ccc(NC(=O)CCC)cc2)cc1OCC | inconclusive: -3.03% |  |
| CCOC(=O)c1c(-c2ccccc2)oc2ccc(OCC(O)CNCCN(C)C)cc12 (stereo not drawn) | inconclusive: -2.12% |  |
| CSc1nc2ccc(NC(=O)c3ccccn3)cc2s1 |  | inconclusive: 17.8 µM [falling, single point] |
| Cc1ccc(-c2nn(-c3ccccc3)cc2/C=N/n2c(-c3ccncc3)n[nH]c2=S)cc1 | inconclusive: -0.144% |  |
| CCOc1ccc(C2=Nn3c(nnc3-c3ccccn3)SC2)cc1 |  | inconclusive: 20 µM [falling, partial curve] |
| NC(=S)N=Nc1c(O)n(CCCl)c2ccc(Cl)cc12 |  | inconclusive: 4.47 µM [cytotoxic, single point] |
| CCOC(=O)N1CCN(C(=O)C(C)N(c2ccc(Oc3ccccc3)cc2)S(C)(=O)=O)CC1 (stereo not drawn) | inconclusive: 8.9% |  |
| O=C(CSc1ccccc1)NNC(=O)c1ccccc1O | inconclusive: 1.75% |  |
| Cc1cc(C)n2nc(S(=O)(=O)NC(C)(C)C)nc2n1 | inactive |  |
| Cc1nc(S(=O)(=O)c2ccc(Cl)cc2)c(NCc2ccccc2)o1 | inconclusive: 21.8% |  |
| Cc1ccc(-c2noc(CCC(=O)NCc3ccco3)n2)cc1 |  | inconclusive: 9.2 µM [rising, partial curve, poor fit] |
| Cc1ccc(N(CC(=O)N2CCc3ccccc32)C2=NC(=O)CS2)cc1 | inconclusive: -3.43% |  |
| O=C(CC1C(=O)NCCN1CC1CCCCC1)NCc1ccc(F)cc1 (stereo not drawn) | inconclusive: 8.51% |  |
| CC1CCCN(C(=O)COc2ccc(Nc3ccccc3)cc2)C1 (stereo not drawn) | inconclusive: 3.69% |  |
| Cc1ccc(S(=O)(=O)N/N=C\c2cc([N+](=O)[O-])ccc2Cl)cc1 | inconclusive: -16.4% |  |
| COc1ccc(/C=C2\SC(=O)N(CCC(=O)Nc3ccc(S(=O)(=O)Nc4nccs4)cc3)C2=O)cc1 |  | inconclusive: 3.66 µM [falling, single point] |
| CSc1nc2ccc(NS(=O)(=O)c3cccc(Cl)c3Cl)cc2s1 | inconclusive: 10.8% |  |
| COc1ccccc1-c1cc(C2CC2)nc(N)c1C#N | inconclusive: 13.2% |  |
| CCCC(O)(c1ccc(CC)cc1)C(CN1CCOCC1)c1ccccc1 (stereo not drawn) | inconclusive: -6.04% |  |
| CCOC(=O)C1=C(C)N(CC)C(=S)NC1c1ccccc1OC(F)F (stereo not drawn) | inconclusive: -3.5% |  |
| CCC(C)C(=O)Nc1nc2ccc(OC)cc2s1 (stereo not drawn) |  | inconclusive: 35.5 µM [rising, single point] |

| Compound | activity change, negative = inhibition | Potency |
| --- | --- | --- |
| Cc1ccc(-c2cc(C(=O)Nc3cc(C)ccc3O)no2)cc1 | inconclusive: -10.2% |  |
| CCc1nc(NCCN2CCOCC2)c2oc3ccccc3c2n1 | inconclusive: 7.89% |  |
| C=CCc1cccc(/C=C/c2cc(=O)c3ccccc3[nH]2)c1O | inactive |  |
| Cc1cc(C)c(NC(=O)c2cccs2)c(C)c1NC(=O)c1cccs1 |  | inconclusive: 3.98 µM [rising, partial curve] |
| CCOC(=O)c1cc(C(=O)c2cc(F)ccc2O)coc1=N | inconclusive: -0.913% |  |
| O=C(NCCCN1CCCCC1)c1ccc2c(c1)ncn2C1CCCC1 | inactive |  |
| O=C(O)c1ccc(Cl)c(NC(=S)NC(=O)c2cccc(COc3ccccc3)c2)c1 | inactive |  |
| O=C1/C(=C/c2ccc(F)cc2)SC(=S)N1Nc1ncc(C(F)(F)F)cc1Cl |  | inconclusive: 16.4 µM [falling, partial curve] |
| COC(=O)c1ccc(COc2cc(C)ccc2C)o1 | inconclusive: -2.4% |  |
| Clc1ccc(-c2nnc(SCc3ccon3)o2)c(Cl)c1 | inconclusive: 14.9% |  |
| S=C(NCc1cccs1)Nc1ccc(Br)cc1Cl | inconclusive: -3.48% |  |
| Cc1cc(C)n(-c2nc(-n3nc(C)cc3C)c3c4c(sc3n2)COC(C)(C)C4)n1 | inconclusive: -14.5% |  |
| CC(=O)Nc1cccc(C(=O)OCC(=O)NCc2cc(C)c(O)c(C)c2)c1 | inconclusive: 10.2% |  |
| CCc1ccc(NC(=O)c2cnn3ccccc23)cc1 |  | inconclusive: 29.1 µM [falling, single point] |
| O=S(=O)(c1cccc(-c2nc3n(n2)Cc2ccccc2-3)c1)N1CCCCC1 | inactive |  |
| O=C(CS(=O)(=O)c1cn(CC(=O)N2CCCC2)c2ccccc12)Nc1ccccc1F | inconclusive: -4.37% |  |
| CC(Sc1nnc(COc2ccc(Cl)cc2)n1-c1ccccc1)C(=O)O (stereo not drawn) | inactive |  |
| O=C(CCCN1CCC(NC(=O)c2ccccc2)CC1)c1ccc(Cl)cc1 | inactive |  |
| CS(=O)(=O)N(CC(=O)NCCSc1ccccn1)c1cccc2ccccc12 | inconclusive: -0.0683% |  |
| O=C(NNC(=O)c1nn(-c2ccc(F)cc2)ccc1=O)c1ccc(C(F)(F)F)cc1 | inconclusive: 3.81% |  |
| Cc1ccc(C(=O)N2CCN(c3ccc(NC(=O)c4cccnc4)cc3)CC2)cc1 | inconclusive: -17.9% |  |

| Compound | activity change, negative = inhibition | Potency |
| --- | --- | --- |
| CCOc1ccc(OCc2ccc(C(=O)N3CCCC3)o2)cc1 |  | inconclusive: 20.6 µM [falling, partial curve, poor fit] |
| COc1ccccc1C(=O)NNC(=O)c1cccc(F)c1 |  | inconclusive: 29.1 µM [rising, single point] |
| COC(=O)c1cscc1NC(C)=O | inconclusive: 5.42% |  |
| O=c1oc2ccccc2c2[nH]ccc12 | inconclusive: -11.4% |  |
| O=[N+]([O-])c1ccc(/C=N/Nc2nc(N3CCCCC3)nc(N3CCCCC3)n2)o1 | inconclusive: 4.46% |  |
| COc1ccc(OCC(=O)NCc2ccc3c(c2)CCN3C(=O)c2cccc(C)c2)cc1 |  | inconclusive: 14.1 µM [cytotoxic, partial curve, poor fit] |
| CCn1c(SCC(=O)Nc2ccccc2N2CCCCC2)nc2c1c(=O)n(C)c(=O)n2C |  | inconclusive: 8.2 µM [rising, partial curve, poor fit] |
| O=C(Nc1nc2cc(Cl)ccc2s1)C1CCCN(S(=O)(=O)c2cccc3cccnc23)C1 (stereo not drawn) |  | inconclusive: 5.17 µM [falling, single point] |
| CCOc1ccc(NS(=O)(=O)c2c(C)nc3sc(CC)nn3c2=O)cc1 | inactive |  |
| Oc1ccc(C(c2nnnn2C2CCCC2)N2CCc3ccccc3C2)cc1 (stereo not drawn) | inconclusive: -8.53% |  |
| O=C(NCc1cccnc1)/C(=C/c1ccccc1)NC(=O)c1ccccc1 | inactive |  |
| CCc1ccc(NC(=O)COC(=O)CN2C(=O)COc3ccccc32)cc1 | inconclusive: 2.82% |  |
| CC(C)(C)C(=O)C(Cc1ccccc1Cl)n1cncn1 (stereo not drawn) | inconclusive: -0.865% |  |
| COC(=O)c1c(N)n(-c2ccc(NC(C)=O)cc2)c2nc3ccccc3nc12 | inconclusive: 23.7% |  |
| COc1ccccc1/C=C/c1ccc2cccc(O)c2n1 | inconclusive: 6.07% |  |
| CC1(c2ccc(OCC#N)cc2)C=C(c2ccc(OCC#N)cc2)n2nc(C(F)(F)F)nc2N1 (stereo not drawn) | inconclusive: -1.33% |  |
| COc1ccc(CNC(=O)c2cccnc2SC)cc1OC | inconclusive: 2.95% |  |
| CS(=O)(=O)N(CC(=O)N1CCN(Cc2ccccc2)CC1)c1ccc2c(c1)OCCO2 |  | inconclusive: 2.59 µM [falling, full curve, poor fit] |
| CCc1c(C(=O)Nc2ccc(S(=O)(=O)N3CCOCC3)cc2)csc1C | inconclusive: 0.795% |  |
| COc1ccc(NC(=S)NCc2cccs2)c(OC)c1 |  | inconclusive: 29.1 µM [falling, single point] |
